Measured values taken from article PMC10091876.
No constants are given. Whether binding was seen depends on the method and setting. In cells and extracts the contact can be indirect. Some results given as binding are weak or reduced against the parent protein; the word gives no strength. Where a sequence is shown, tags or fusion partners need not be part of it.

Molecular target: T1, HA-tagged Calhm2 (UniProt Q8VEC4)
T1 sequence: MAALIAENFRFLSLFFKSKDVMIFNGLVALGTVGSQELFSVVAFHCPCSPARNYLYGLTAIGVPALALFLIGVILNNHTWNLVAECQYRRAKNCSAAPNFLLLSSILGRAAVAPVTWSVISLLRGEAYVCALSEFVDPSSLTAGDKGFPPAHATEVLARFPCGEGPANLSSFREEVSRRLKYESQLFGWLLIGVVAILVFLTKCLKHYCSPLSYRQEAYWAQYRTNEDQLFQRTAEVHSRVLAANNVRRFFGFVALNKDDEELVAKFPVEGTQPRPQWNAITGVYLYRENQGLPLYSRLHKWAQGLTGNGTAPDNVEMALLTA
Experiment: co-IP; Myc-EFhd2 and HA-Calhm2 plasmids co-transfected in HEK293T cells, with or without LPS stimulation for 6 h; immunoprecipitation of HA, immunoblotting for Myc and HA

- binding: binds
B1: Myc-tagged EFhd2 (protein, UniProt Q9D8Y0 1-240)
chain: MATDELASKLSRRLQMEGEGGEATEQPGLNGAAAAAAAEAPDETAQALGSADDELSAKLLRRADLNQGIGEPQSPSRRVFNPYTEFKEFSRKQIKDMEKMFKQYDAGRDGFIDLMELKLMMEKLGAPQTHLGLKSMIQEVDEDFDSKLSFREFLLIFRKAAAGELQEDSGLQVLARLSEIDVSTEGVKGAKNFFEAKVQAINVSSRFEEEIKAEQEERKKQAEEVKQRKAAFKELQSTFK
